Some entries share one result that the patent states for a list of compounds.
Target: EP4 Receptor (Oryctolagus cuniculus, UniProt Q28691)
Test: Magnus experiment using rabbit saphenous vein (relaxation of 40 mM KCl contraction)
Format: cell-based
Settings: statement drawn from Table 2
Protocol: Magnus Experiment Using Rabbit Saphenous Vein
Investigation of agonistic activity to EP4 was carried out by an improved method of the method of Lydford et al. (S. J. Lydford et al., Br. J. Pharmacol. 117, 13-20 (1996)) using rabbit saphenous veins. That is, each rabbit was deeply anesthetized by administering pentobarbital (50 mg/kg) to auricular vein, and then sacrificed by bleeding by cutting carotid artery. Saphenous vein was carefully but quickly removed and transferred into Krebs solution (NaCl 118.1 mM, KCl 5.31 mM, MgSO4 1.01 mM, CaCl2 3.52 mM, NaH2PO4 1.09 mM, NaHCO3 25.0 mM, glucose 9.99 mM, pH 7.4) which was preliminarily saturated with 95% O2+5% CO2 mixed gas. The connective tissue and the fatty tissue of each saphenous vein were isolated using a scissors for ophthalmology to prepare a ring preparation with a width of about 4 mm. This ring preparation was mounted on a hook for blood vessels, and then suspended in a Magnus tube filled with Krebs solution aerated with 95% O2+5% CO2 mixed gas and kept at 37° C. The isometric tension of each blood vessel was recorded on a recorder through an isometric transducer. […] More specifically, the reactivity to PGE2 which was a positive control drug was measured, and after washing, the action of each compound was studied. […]

Chains of the proteins cited; added tags and fusions are not shown. Lines headed by an entry give the natural chain unless they say otherwise; changes in a name come on top.
UniProt Q28691: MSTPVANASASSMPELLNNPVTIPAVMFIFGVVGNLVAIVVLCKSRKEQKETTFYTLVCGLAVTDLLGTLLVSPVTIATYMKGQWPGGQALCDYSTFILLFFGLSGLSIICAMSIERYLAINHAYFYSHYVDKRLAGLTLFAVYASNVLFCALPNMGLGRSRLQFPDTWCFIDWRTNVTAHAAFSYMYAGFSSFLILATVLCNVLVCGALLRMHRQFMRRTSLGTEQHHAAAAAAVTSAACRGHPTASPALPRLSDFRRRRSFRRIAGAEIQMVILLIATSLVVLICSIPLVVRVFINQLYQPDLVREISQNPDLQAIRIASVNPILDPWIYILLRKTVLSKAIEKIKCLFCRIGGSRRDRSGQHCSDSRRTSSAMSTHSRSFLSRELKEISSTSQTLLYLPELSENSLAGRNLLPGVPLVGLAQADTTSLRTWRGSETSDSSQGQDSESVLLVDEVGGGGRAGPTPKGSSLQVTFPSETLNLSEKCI

CC(C)(C(O)C=CC1C(O)CC2Oc3c(OCC(=O)O)cccc3C21)C1CCCCC1 (stereo not shown) [Compound 5]
selectivities to EP4 receptor subtype (binding abilities to other receptor subtypes are low): high selectivities
